For at least one compound, name, drawing or mass did not settle the structure.
System: indole oxidation activity in strain WW2 crude cell extract
Experiment: Cell-free indole-dependent NAD(P)H oxidation, cofactor requirements (spectrophotometric)
Type: biochemical, Pseudomonas putida
Description: Spectrophotometric assavs. Cell-free, indole-dependent NADH oxidation was measured spectrophotometrically with a Hewlett-Packard 8452A diode array spectrophotometer. The reactions (1.0 ml volume) contained crude soluble cytosolic fraction (SCF), 3.0 mM NADH, 2.0 mM indole and 50 mM Tris-HCl (pH 7.5). The reactions were initiated by addition of NADH and the initial rates were corrected for background NADH oxidation rates, which were measured in the absence of indole. NADPH was substituted for NADH to compare its ability to serve as an electron donor for indole oxidation activity.
Cofactor requirement of the indole oxidizing activity in the crude soluble cytosolic fraction was investigated in spectrophotometric assays as described in Example 6.

In the case of `NC(=O)C1=CN([C@@H]2O[C@H](COP(=O)(O)OP(=O)(O)OC[C@H]3O[C@@H](n4cnc5c(N)ncnc54)[C@H](O)[C@@H]3O)[C@@H](O)[C@H]2O)C=CC1` [NADH, nicotinamide adenine dinucleotide], the “preference of NADH over NADPH as source of reducing equivalents” value is reported as 3 fold, the “NADH Oxidation Activity Relative % Rate” value (NADH + FAD = 100%) is reported as 30% and the “NADH Oxidation Activity A340 Rate” value (indole 0.5 mM, extract 0.91 mg protein/ml, NADH/NADPH 300 μM, FAD/FMN 1 μM, Fe(NH4)2SO4 140 μM, average of duplicates) is reported as 0.143.
